# Experimental data taken from article PMC10605742.
# Chains of the proteins cited; added tags and fusions are not shown. Lines headed by an entry give the natural chain unless they say otherwise; changes in a name come on top.
# UniProt P61586: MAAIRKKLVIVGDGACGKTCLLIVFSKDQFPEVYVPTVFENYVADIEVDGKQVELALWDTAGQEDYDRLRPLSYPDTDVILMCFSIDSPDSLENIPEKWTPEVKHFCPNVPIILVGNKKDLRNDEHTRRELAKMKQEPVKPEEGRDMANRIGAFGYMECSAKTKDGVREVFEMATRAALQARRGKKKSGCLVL
# No constants are given. Whether binding was seen depends on the method and setting. Binding seen in cells or lysates may run through a third protein. Some entries that bind do so weakly or less than the wild type.
# T1: endothelial nitric oxide synthase (rat (endogenous in NRCM)) (UniProt Q62600)
# T1 sequence: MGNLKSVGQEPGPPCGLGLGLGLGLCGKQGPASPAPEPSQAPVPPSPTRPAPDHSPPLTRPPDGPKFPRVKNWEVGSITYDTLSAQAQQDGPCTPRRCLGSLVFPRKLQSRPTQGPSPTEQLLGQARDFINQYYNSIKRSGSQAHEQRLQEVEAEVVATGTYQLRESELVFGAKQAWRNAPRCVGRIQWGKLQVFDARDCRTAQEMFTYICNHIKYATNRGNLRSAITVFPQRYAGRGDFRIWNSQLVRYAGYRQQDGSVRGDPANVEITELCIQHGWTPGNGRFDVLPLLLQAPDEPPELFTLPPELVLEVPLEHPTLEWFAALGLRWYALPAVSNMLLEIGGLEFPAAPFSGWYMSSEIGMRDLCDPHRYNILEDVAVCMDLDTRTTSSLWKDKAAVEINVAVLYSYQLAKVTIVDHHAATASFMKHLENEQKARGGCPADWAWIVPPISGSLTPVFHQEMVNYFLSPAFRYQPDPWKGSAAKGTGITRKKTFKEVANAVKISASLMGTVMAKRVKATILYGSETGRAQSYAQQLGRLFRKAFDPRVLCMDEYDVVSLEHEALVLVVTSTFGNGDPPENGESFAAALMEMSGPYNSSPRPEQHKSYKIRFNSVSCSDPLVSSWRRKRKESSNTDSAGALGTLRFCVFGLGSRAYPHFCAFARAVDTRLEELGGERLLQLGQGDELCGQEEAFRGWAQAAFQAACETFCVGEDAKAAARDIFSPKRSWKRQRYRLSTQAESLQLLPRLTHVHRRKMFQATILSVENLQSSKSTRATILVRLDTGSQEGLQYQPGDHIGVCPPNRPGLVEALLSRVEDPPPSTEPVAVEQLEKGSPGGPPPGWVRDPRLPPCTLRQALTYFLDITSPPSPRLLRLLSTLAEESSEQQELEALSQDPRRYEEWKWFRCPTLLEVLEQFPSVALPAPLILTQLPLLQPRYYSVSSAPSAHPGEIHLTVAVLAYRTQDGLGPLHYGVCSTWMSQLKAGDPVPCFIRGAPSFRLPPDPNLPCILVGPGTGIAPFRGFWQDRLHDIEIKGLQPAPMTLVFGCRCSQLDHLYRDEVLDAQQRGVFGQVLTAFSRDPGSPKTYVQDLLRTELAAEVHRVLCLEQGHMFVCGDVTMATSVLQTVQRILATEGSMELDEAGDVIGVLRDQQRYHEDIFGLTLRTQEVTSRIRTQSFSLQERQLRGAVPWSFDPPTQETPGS
# T2: caveolin-3 (rat (endogenous in NRCM)) (UniProt P51638)
# T2 sequence: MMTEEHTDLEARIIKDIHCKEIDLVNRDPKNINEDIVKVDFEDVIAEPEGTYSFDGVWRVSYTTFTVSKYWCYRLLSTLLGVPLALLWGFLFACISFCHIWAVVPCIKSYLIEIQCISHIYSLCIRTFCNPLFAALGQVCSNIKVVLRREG
# How the values were obtained:
# [1] = target: T1, endothelial nitric oxide synthase (rat (endogenous in NRCM)); assay: co-IP; lysates of NRCM transduced with Ad-RGS3L-N460A (or Ad-EGFP), with or without 1 mM carbachol for 5 min, in some panels pretreated with 10 µM L-NIO or 10 µM L-NAME; buffer 50 mM Tris-HCl pH 7.4, 2 mM EDTA, 150 mM NaCl, 0.1% SDS, 1% Nonidet P-40, 10 mM NaF; 2 µg antibody (anti-p190A, anti-eNOS, anti-Cav3 or anti-RGS3), protein-A-sepharose, 4 °C; immunoblot
# [2] = target: T2, caveolin-3 (rat (endogenous in NRCM)); assay: as above
# [3] = target: constitutively active RhoA (RhoAQ63L)-GST (UniProt P61586); assay: pull-down; RhoAQ63L-GST- or Rac1Q61L-GST-coated sepharose beads; lysates of NRCM transduced with Ad-RGS3L-N460A or Ad-EGFP for 48 h, with or without 1 mM carbachol for 5 min; bound p190A or p190B detected by immunoblot with isoform-specific antibodies; only the target purified
binding [1],binding [2],binding [3],Binder
binds,binds,binds,"p190RhoGAP-A (protein, UniProt P81128 1-1499) MMMARKQDVRIPTYNISVVGLSGTEKEKGQCGIGKSCLCNRFVRPSADEFHLDHTSVLSTSDFGGRVVNNDHFLYWGEVSRSLEDCVECKMHIVEQTEFIDDQTFQPHRSTALQPYIKRAAATKLASAEKLMYFCTDQLGLEQDFEQKQMPDGKLLVDGFLLGIDVSRGMNRNFDDQLKFVSNLYNQLAKTKKPIVIVLTKCDEGVERYIRDAHTFALSKKNLQVVETSARSNVNVDLAFSTLVQLIDKSRGKTKIIPYFEALKQQSQQIATAKDKYEWLVSRIVKSHNENWLSVSRKMQASPEYQDYVYLEGTQKAKKLFLQHIHRLKHEHIERRRKLYLAALPLAFEALIPNLDEVDHLSCIKAKKLLETKPEFLKWFVVLEETPWDETSHIDNMENERIPFDLMDTVPAEQLYETHLEKLRNERKRAEMRRAFKENLETSPFITPGKPWEEARSFIMNEDFYQWLEESVYMDIYGKHQKQIIDRAKEEFQELLLEYSELFYELELDAKPSKEKMGVIQDVLGEEQRFKALQKLQAERDALILKHIHFVYHPTKETCPSCPACVDAKIEHLISSRFIRPSDRNQKNSLSDPNIDRINLVILGKDGLARELANEIRALCTNDDKYVIDGKMYELSLRPIEGNVRLPVNSFQTPTFQPHGCLCLYNSKESLSYVVESIEKSRESTLGRRDNHLVHLPLTLILVNKRGDTSGETLHSLIQQGQQIASKLQCVFLDPASAGIGYGRNINEKQISQVLKGLLDSKRNLNLVSSTASIKDLADVDLRIVMCLMCGDPFSADDILSPVLQSQTCKSSHCGSSNSVLLELPIGVHKKRIELSVLSYHSSFSIRKSRLVHGYIVFYSAKRKASLAMLRAFLCEVQDIIPIQLVALTDGAIDVLDNDLSREQLTEGEEIAQEIDGRFTSIPCSQPQHKLELFHPFFKDVVEKKNIIEATHMYDNVAEACSTTEEVFNSPRAGSPLCNSNLQDSEEDVEPPSYHLFREDATLPSLSKDHSKFSMELEGNDGLSFIMSNFESKLNNKVPPPVKPKPPVHFEITKDLSYLDQGHREGQRKSMSSSPWMPQDGFDPSDYAEPMDAVVKPRNEEENIYSVPHDSTQGKIITIRNINKAQSNGSGNGSDSEMDTSSLERGRKVSAVSKPVLYRTRCTRLGRFASYRTSFSVGSDDELGPIRKKEEDQASQGYKGDNAVIPYETDEDPRRRNILRSLRRNTKKPKPKPRPSITKATWESNYFGVPLTTVVTPEKPIPIFIERCIEYIEATGLSTEGIYRVSGNKSEMESLQRQFDQDHNLDLAEKDFTVNTVAGAMKSFFSELPDPLVPYSMQIDLVEAHKINDREQKLHALKEVLKKFPKENHEVFKYVISHLNRVSHNNKVNLMTSENLSICFWPTLMRPDFSSMDALTATRSYQTIIELFIQQCPFFFYNRPISEPPGAAPGSPSAMAPTVPFLTSTPATSQPSPPQSPPPTPQSPMQPLLSSQLQAEHTL"
,binds,,"endothelial nitric oxide synthase (enzyme, UniProt Q62600 1-1202) MGNLKSVGQEPGPPCGLGLGLGLGLCGKQGPASPAPEPSQAPVPPSPTRPAPDHSPPLTRPPDGPKFPRVKNWEVGSITYDTLSAQAQQDGPCTPRRCLGSLVFPRKLQSRPTQGPSPTEQLLGQARDFINQYYNSIKRSGSQAHEQRLQEVEAEVVATGTYQLRESELVFGAKQAWRNAPRCVGRIQWGKLQVFDARDCRTAQEMFTYICNHIKYATNRGNLRSAITVFPQRYAGRGDFRIWNSQLVRYAGYRQQDGSVRGDPANVEITELCIQHGWTPGNGRFDVLPLLLQAPDEPPELFTLPPELVLEVPLEHPTLEWFAALGLRWYALPAVSNMLLEIGGLEFPAAPFSGWYMSSEIGMRDLCDPHRYNILEDVAVCMDLDTRTTSSLWKDKAAVEINVAVLYSYQLAKVTIVDHHAATASFMKHLENEQKARGGCPADWAWIVPPISGSLTPVFHQEMVNYFLSPAFRYQPDPWKGSAAKGTGITRKKTFKEVANAVKISASLMGTVMAKRVKATILYGSETGRAQSYAQQLGRLFRKAFDPRVLCMDEYDVVSLEHEALVLVVTSTFGNGDPPENGESFAAALMEMSGPYNSSPRPEQHKSYKIRFNSVSCSDPLVSSWRRKRKESSNTDSAGALGTLRFCVFGLGSRAYPHFCAFARAVDTRLEELGGERLLQLGQGDELCGQEEAFRGWAQAAFQAACETFCVGEDAKAAARDIFSPKRSWKRQRYRLSTQAESLQLLPRLTHVHRRKMFQATILSVENLQSSKSTRATILVRLDTGSQEGLQYQPGDHIGVCPPNRPGLVEALLSRVEDPPPSTEPVAVEQLEKGSPGGPPPGWVRDPRLPPCTLRQALTYFLDITSPPSPRLLRLLSTLAEESSEQQELEALSQDPRRYEEWKWFRCPTLLEVLEQFPSVALPAPLILTQLPLLQPRYYSVSSAPSAHPGEIHLTVAVLAYRTQDGLGPLHYGVCSTWMSQLKAGDPVPCFIRGAPSFRLPPDPNLPCILVGPGTGIAPFRGFWQDRLHDIEIKGLQPAPMTLVFGCRCSQLDHLYRDEVLDAQQRGVFGQVLTAFSRDPGSPKTYVQDLLRTELAAEVHRVLCLEQGHMFVCGDVTMATSVLQTVQRILATEGSMELDEAGDVIGVLRDQQRYHEDIFGLTLRTQEVTSRIRTQSFSLQERQLRGAVPWSFDPPTQETPGS"
